For some assays here: For at least one compound, name, drawing or mass did not settle the structure. Some entries share one result that the patent states for a list of compounds.
Assays:
Format in all cases: cell-based
[1] = tested on: ZR-75 breast cancer cell line; assay: Proliferation assay, breast cancer cell line ZR-75; conditions: ZR-75, compared to vehicle control
Protocol: (§1) Breast cancer cell line ZR-75 was grown in the presence of 5 μM inhibitors for 24 and 48 hrs, total RNA was isolated and RT-PCR performed for PPARα and PPARγ using specific primers. Results are presented as percent of control after normalizing with the actin values. The experiment was repeated three times. The error bars indicate standard deviation. […] All values were determined by assessment of % growth inhibition calculated from the optical density value, with a minimum of 6 replicates from at least three different experiments per cell line. The ligands included WY-14643 (open circles); LY 171883 (closed circles); fenofibrate (triangles); clofibrate (diamonds).
Cell lines used in the study were obtained from the American Type Culture Collection (Rockville, Md.). They included MCF-7, ZR-75, T47 D; SKBR-3, and MB-231. The cells were maintained in RPMI-1640, or MEM Zinc option medium, supplemented with 5% fetal bovine serum (FBS), penicillin (50 units/ml) and streptomycin (50 μg/ml) (Life Technologies, Gaithersburg, Md.), in a humidified atmosphere of 95% air and 5% CO2 at 37° C.

[2] = tested on: T47D breast cancer cell line; assay: Proliferation assay, breast cancer cell line T47D; conditions: compared to vehicle control
Protocol: as §1
(A) Northern blot analysis for PPARγ (1.8 Kb), of breast cancer cell line T47D treated with 5 μM MK 886 for 6, 12, 24 hrs and untreated control. RNA was isolated as described in Methods, and […] of total RNA was loaded per lane. Ethidium bromide staining of 28S rRNA was used to check for equal loading and RNA integrity (lower panel). (B) RNA isolated from T47D cells treated with 5 μM MK 886 for different time periods were subjected to RT-PCR using specific primers for PPARγ. The PCR products were normalized to actin gene and 18S. PCR products were quantified by densitometry and the data points presented are expressed as percent of control, and represent mean and SEM of three experiments. […]

[3] = tested on: A549, H510, H345, and N417 lung cancer cell lines; assay: Growth inhibition (MTT, BrdU) in lung cancer cell lines
Protocol: (§2) Lung cancer cell lines used for PPAR analysis included A549, H510, H345, and N417. The FLAP inhibitor: MK886 and COX inhibitor: indomethacin, and combinations thereof, were used as AA inhibitors. PPARs for the analysis included PGJ2 (γ ligand); ciglitazone (γ agonist); LY171882 (γ receptor activator); and WY 14643 (α activator). In order to analyze PPARs in lung cancer cells, growth inhibition (MTT, BrdU); apoptosis (Caspase 3/7 and M30 IHC); and mRNA Northern analyses were performed.

H345 cell line = assay: Apo-1 Caspase 3/7 apoptosis assay, H345
Protocol: as §2
Apoptosis was determined at particular time points using the Apo-1Caspase 3/7 assay.

| SMILES | breast tumor cell growth [1] | breast tumor cell growth [2] | effect on cell growth [3] | apoptosis (Caspase 3/7) (H345 cell line) |
| --- | --- | --- | --- | --- |
| Cc1cccc(Nc2cc(Cl)nc(SCC(=O)O)n2)c1C [WY-14643, 4-chloro-6-(2,3-xylidino)-2-pyrimidinylthio acetic acid] | dose dependent growth reduction | dose dependent growth reduction | less than 10% | neither LY171882 or WY 14643 (α activator) induced apoptosis |
| CCCc1c(OCCCCc2nnn[nH]2)ccc(C(C)=O)c1O [LY 171883] |  |  | less than 10% |  |
